Test results taken from paper PMC13354802.
Results are given in words; binding and its absence hold for the method and conditions named. Binding seen in cells or lysates may run through a third protein.

Amino acid sequences for entries named in this document (tags omitted).
UniProt O00429: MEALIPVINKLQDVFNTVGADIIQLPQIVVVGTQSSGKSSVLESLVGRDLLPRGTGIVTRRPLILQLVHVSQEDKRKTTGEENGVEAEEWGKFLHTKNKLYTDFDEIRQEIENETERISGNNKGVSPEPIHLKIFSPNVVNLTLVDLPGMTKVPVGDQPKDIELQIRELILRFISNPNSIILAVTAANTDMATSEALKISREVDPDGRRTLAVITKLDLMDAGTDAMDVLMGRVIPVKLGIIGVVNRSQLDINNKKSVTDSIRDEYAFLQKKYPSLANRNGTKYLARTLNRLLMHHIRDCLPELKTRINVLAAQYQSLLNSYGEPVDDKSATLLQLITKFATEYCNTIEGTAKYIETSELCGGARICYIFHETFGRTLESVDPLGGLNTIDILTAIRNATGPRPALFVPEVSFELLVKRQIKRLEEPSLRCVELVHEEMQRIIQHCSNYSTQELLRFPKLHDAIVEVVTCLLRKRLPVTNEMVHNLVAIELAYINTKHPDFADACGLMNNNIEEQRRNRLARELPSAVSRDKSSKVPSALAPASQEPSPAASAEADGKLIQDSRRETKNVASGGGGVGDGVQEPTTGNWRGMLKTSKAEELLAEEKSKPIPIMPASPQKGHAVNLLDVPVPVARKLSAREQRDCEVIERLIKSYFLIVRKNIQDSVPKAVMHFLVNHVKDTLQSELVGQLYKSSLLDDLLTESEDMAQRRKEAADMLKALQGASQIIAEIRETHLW

Biological target: SidC, purified L. pneumophila effector (negative control) (L. pneumophila) (UniProt Q6RCR4)
Assay: pull-down; only the target purified

dynamin-related protein 1 (Drp1), endogenous in HeLa cell lysate (from UniProt O00429 1-736) (enzyme)
binding: no binding
